Results taken from paper PMC3796466.
These are yes or no findings as the source states them, for the method shown. Binding seen in cells or lysates may run through a third protein. Sequences can lack the tags named with a protein.

T1: amino-terminally double myc-tagged mouse transferrin receptor 2 (mTfr2), wild type (mouse) (UniProt Q9JKX3)
T1 sequence: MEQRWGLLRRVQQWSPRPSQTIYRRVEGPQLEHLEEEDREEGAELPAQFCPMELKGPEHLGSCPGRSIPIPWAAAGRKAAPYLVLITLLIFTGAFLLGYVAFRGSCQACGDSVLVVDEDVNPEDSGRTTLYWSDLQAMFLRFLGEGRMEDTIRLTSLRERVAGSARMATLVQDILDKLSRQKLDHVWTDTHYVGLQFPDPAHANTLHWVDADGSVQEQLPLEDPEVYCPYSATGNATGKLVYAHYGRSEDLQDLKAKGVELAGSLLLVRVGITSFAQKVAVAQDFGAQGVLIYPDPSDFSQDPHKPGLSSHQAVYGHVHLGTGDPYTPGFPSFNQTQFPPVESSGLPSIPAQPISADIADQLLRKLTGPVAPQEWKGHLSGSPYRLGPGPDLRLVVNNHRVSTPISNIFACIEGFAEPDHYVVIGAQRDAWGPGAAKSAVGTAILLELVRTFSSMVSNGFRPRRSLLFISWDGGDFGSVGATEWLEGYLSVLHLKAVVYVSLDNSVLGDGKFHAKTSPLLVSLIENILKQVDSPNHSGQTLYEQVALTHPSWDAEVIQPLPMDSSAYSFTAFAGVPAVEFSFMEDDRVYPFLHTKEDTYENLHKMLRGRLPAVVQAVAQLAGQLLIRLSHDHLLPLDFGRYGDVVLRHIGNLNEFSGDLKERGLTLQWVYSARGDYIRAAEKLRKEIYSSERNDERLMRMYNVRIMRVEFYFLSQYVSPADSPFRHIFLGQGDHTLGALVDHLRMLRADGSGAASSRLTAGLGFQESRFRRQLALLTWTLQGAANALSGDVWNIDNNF

T2: FLAG-tagged mouse Hfe (mHfe) (mouse) (UniProt P70387)
T2 sequence: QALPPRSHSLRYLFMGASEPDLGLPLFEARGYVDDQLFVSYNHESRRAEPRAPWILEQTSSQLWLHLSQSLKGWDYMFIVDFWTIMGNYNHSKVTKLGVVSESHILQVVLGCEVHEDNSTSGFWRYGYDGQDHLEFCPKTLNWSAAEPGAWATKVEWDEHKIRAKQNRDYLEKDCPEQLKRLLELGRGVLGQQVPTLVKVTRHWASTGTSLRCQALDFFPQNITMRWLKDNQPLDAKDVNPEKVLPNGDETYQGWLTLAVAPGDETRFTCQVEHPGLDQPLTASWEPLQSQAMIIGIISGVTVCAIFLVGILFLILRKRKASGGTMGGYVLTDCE

B1: FLAG-tagged mouse Hfe (mHfe) (protein, UniProt P70387 25-359)
chain: T2 sequence
B2: amino-terminally double myc-tagged mouse transferrin receptor 2 (mTfr2), wild type (receptor, UniProt Q9JKX3 1-798)
chain: T1 sequence
B3: amino-terminally double myc-tagged mouse Tfr2 Y245X truncation mutant (domain or fragment, UniProt Q9JKX3 1-244)
chain: MEQRWGLLRRVQQWSPRPSQTIYRRVEGPQLEHLEEEDREEGAELPAQFCPMELKGPEHLGSCPGRSIPIPWAAAGRKAAPYLVLITLLIFTGAFLLGYVAFRGSCQACGDSVLVVDEDVNPEDSGRTTLYWSDLQAMFLRFLGEGRMEDTIRLTSLRERVAGSARMATLVQDILDKLSRQKLDHVWTDTHYVGLQFPDPAHANTLHWVDADGSVQEQLPLEDPEVYCPYSATGNATGKLVYAH

Assays:
[1] = biological target: T1, amino-terminally double myc-tagged mouse transferrin receptor 2 (mTfr2), wild type (mouse); experiment: proximity ligation; Duolink mouse/rabbit red kit on fixed, saponin-permeabilized Hepa1-6 cells stably co-expressing FLAG-Hfe and myc-Tfr2 (WT); antibodies against FLAG, Tfr1 and Tfr2; cells untreated or cultured with 2 mg/ml apo-Tf or holo-Tf for 24 hours
[2] = biological target: T1, amino-terminally double myc-tagged mouse transferrin receptor 2 (mTfr2), wild type (mouse); experiment: co-IP; lysates of Hepa 1-6 cells stably co-expressing FLAG-Hfe and myc-Tfr2 (WT or Y245X); anti-DYKDDDDK beads or anti-Tfr2 cross-linked to protein A/G beads, overnight at 4°C; cells treated with the surface crosslinker BS3 for 30 minutes at 4 °C before harvest; also cells cultured with 2 mg/ml apo-Tf or holo-Tf for 24 hours; rabbit and mouse IgG beads as controls
[3] = biological target: T2, FLAG-tagged mouse Hfe (mHfe) (mouse); experiment: as above

Binder | binding [1] | binding [2] | binding [3]
B1 | no binding | no binding | –
B2 | – | – | no binding
B3 | – | – | no binding
